Reference: PubChem BioAssay AID1347076 (National Center for Advancing Translational Sciences (NCATS), 2019)
Screen size: about 400,000 compounds; about 13,000 (3.2%) were called active. Inconclusive means that the source gave no clear call. Such entries were picked first, then a sample of the others. Calls come from the whole dose curve; as a rule, active = well fitted cell-killing curve with a large enough effect; inconclusive = small, poorly fitted or top-dose-only effect, or effect the other way; inactive = flat fitted curve, though single readings scatter. Where the call is inconclusive, the potency comes from a doubtful curve fit.
% is set by controls: 0 for no effect and ±100 for the full control effect; potency is the fitted concentration of half-maximal effect.

Experiment: qHTS assay for MDR1-selective chemotherapeutics: Primary screen using the drug-selected MDR subline cells KB-V1; note: nearly all actives have a fitted effect of over 60% in size
Conditions: KB-V1 MDR cells viability, CellTiter-Glo, 72 h; activity change, negative = cytotoxicity: at 46.1 µM (top of the series)
Procedure, shortened: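 Following 72 h at 37 degrees C with compound, KB-V1 cell viability was read by CellTiter-Glo luminescence, medium being phenol-red-free DMEM plus 10% FBS; concentration-response parameters came from normalized, curve-fitted qHTS data.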
With `COc1cc(OC)cc(C2=Cc3ccc(OC)cc3C(CC(C)=O)N2c2ccc(C#CCCO)cc2)c1` (configuration not stated) the Potency was “inactive”. With `CCn1c(=O)c2sccc2n2c(CCC(=O)NCc3ccc(Cl)cc3)nnc12` the Potency was inconclusive: 1.03 µM [cytotoxic, full curve, poor fit]. In the case of `CCCCN(C)c1c(C)nc2ccc(C(=O)NCc3ccc4c(c3)OCO4)cn12`, the Potency is reported as inconclusive: 5.17 µM [cytotoxic, partial curve]. With `Cc1oc(-c2cccc(Cl)c2)nc1CSCC(=O)NCc1ccccc1Cl` the Potency was inconclusive: 29.1 µM [cytotoxic, single point]. With `Cc1cccc(OCC(O)CN2CCc3ccccc3C2)c1` (configuration not stated) the Potency was “inactive”. For `CCOc1cc(CNCCO)cc(Br)c1OCc1ccc(Cl)cc1Cl`, the Potency was inconclusive: 29.1 µM [cytotoxic, single point]. With `CCOC(=O)C1CCN(C(=O)Cn2ncc3c4ccccc4n(C)c3c2=O)CC1` the Potency was inconclusive: 29.1 µM [rising, single point]. For `CC(=O)Cc1cc(O)c2ccccc2c1OC(=O)c1ccc(Br)cc1`, the Potency was “inactive”. In the case of `O=C(Nc1ncnc2sc3c(c12)CCCCC3)c1ccccc1`, the Potency is reported as inconclusive: 11.2 µM [cytotoxic, partial curve]. With `CCN1C(=O)CC(C(=O)Nc2ccc(F)cc2)SC1=Nc1cccc(OC)c1` (configuration not stated) the Potency was active: 18.4 µM. With `COc1ccc(NC(=O)CCCn2c(=O)c3sccc3n(Cc3ccc(C)cc3C)c2=O)cc1` the Potency was active: 8.2 µM. In the case of `COc1ccc2c(c1OC)C(=O)N1c3ccccc3C(=O)N(c3ccccc3)C21` (configuration not stated), the Potency is reported as “inactive”. With `O=C(Nc1ccccc1)C(Cc1ccccc1)NC(=O)C12CC3CC(CC(C3)C1)C2` (configuration not stated) the Potency was “inactive”. With `CCCn1nc([N+](=O)[O-])c(C(C#N)c2nc3ccccc3s2)c(Cl)c1=O` (configuration not stated) the Potency was active: 5.8 µM. In the case of `Cc1nn(-c2ccccc2)c(Cl)c1C(=O)OCC(=O)N(C)c1c(N)n(Cc2ccccc2)c(=O)[nH]c1=O`, the Potency is reported as inconclusive: 25.9 µM [rising, single point]. With `COc1ccc(N(CC(=O)NCc2ccccc2OC)S(=O)(=O)c2ccccc2)cc1` the Potency was “inactive”. With `COC(=O)c1cc(OC)c(OC)cc1N1C(=O)CC(C)(C)CC1=O` the Potency was inconclusive: 6.51 µM [rising, full curve, poor fit]. In the case of `O=C(O)c1ccc2c(c1)C(=O)N(Cc1ccco1)C2=O`, the Potency is reported as inconclusive: 23.1 µM [rising, single point]. For `Cn1cc(C(c2ccccc2)c2ccc(Cl)s2)c2ccccc21` (configuration not stated), the Potency was “inactive”. For `CCCc1cc(=O)oc2cc(OCC(=O)NCCc3c[nH]c4ccc(OC)cc34)ccc12`, the Potency was “inactive”. For `COc1ccc(F)c(CN(C)CC2CCCN(CCc3ccc(F)cc3)C2)c1` (configuration not stated), the Potency was inconclusive: 20.6 µM [cytotoxic, partial curve, poor fit]. In the case of `CCOC(=O)n1c(=O)n(Cc2ccc(OC)cc2)c2ccccc21`, the Potency is reported as inconclusive: 20.6 µM [cytotoxic, single point]. For `COc1cccc(C(=O)N/N=C(\CC(C)C)c2ccccc2)c1`, the Potency was “inactive”. In the case of `CCc1nn2c(=O)cc(COc3cccc(NC(=O)c4ccco4)c3)nc2s1`, the Potency is reported as inconclusive: 9.2 µM [cytotoxic, partial curve]. For `CCc1nc2c(OCCc3cccc(OC)c3)cccn2c1N(C)C(=O)c1ccc(C)cc1`, the Potency was inconclusive: 18.4 µM [cytotoxic, single point]. With `N#CC(OC(=O)c1ccccc1)c1ccccc1` (configuration not stated) the Potency was “inactive”. In the case of `Cc1cc(=O)oc2cc(OCCSCCN3CCOCC3)ccc12`, the Potency is reported as inconclusive: 23.1 µM [cytotoxic, partial curve]. In the case of `O=C(CCCN1C(=O)/C(=C\c2ccccc2)SC1=S)Nc1ccc(O)cc1`, the activity change, negative = cytotoxicity is reported as inconclusive: -31.5% [cytotoxic]. With `CC(=O)NCCc1nc2cc(NC(=O)c3cccc([N+](=O)[O-])c3)ccc2n1C` the Potency was “inactive”. In the case of `CCOC(=O)c1c(C)oc2ncnc(Nc3cc(Cl)ccc3OC)c12`, the Potency is reported as “inactive”. For `CCOC(=O)c1oc2ccc(S(=O)(=O)N3CCC(C)CC3)cc2c1C`, the Potency was active: 16.4 µM. With `O=C(CN1CCN(S(=O)(=O)c2ccccc2)CC1)Nc1ccccc1C(=O)c1ccccc1` the Potency was active: 3.66 µM.
